Results are given in words; binding and its absence hold for the method and conditions named. In cells and extracts the contact can be indirect. Some binding calls cover weakened binding; strength is not graded here. For some of these results: Where a sequence is shown, tags or fusion partners need not be part of it.
What was measured:
Assay in all cases: pull-down; GST-pulldown on glutathione agarose (16 h, 4 °C, beads blocked with 1% BSA) from lysates of HEK293T cells co-transfected with FLAG-PRMT5 and GST-tagged bait; immunoblot; also with Nec-1 treatment of the cells
[1] = target: T1, GST-tagged mRIPK1 lacking both death domain and RHIM motif (∆DD/∆RHIM, mRIPK1-1-500 aa) (mouse) (UniProt Q60855)
T1 sequence: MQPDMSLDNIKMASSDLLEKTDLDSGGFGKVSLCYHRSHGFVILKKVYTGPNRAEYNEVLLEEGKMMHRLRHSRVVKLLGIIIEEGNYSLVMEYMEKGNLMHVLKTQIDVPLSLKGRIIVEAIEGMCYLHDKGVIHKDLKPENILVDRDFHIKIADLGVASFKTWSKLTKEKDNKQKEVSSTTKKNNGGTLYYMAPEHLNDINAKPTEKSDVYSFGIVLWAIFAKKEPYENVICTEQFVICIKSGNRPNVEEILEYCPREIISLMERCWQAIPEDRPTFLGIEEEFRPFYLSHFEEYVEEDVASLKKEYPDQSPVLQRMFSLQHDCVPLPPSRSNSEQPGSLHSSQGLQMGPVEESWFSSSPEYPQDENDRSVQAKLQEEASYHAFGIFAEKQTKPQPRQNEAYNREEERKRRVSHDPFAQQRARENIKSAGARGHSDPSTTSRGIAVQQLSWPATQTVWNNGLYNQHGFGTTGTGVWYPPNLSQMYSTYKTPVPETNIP

Protein sequences, listed by entry. Tags and fused reporters are not part of them.
UniProt Q9QZL0: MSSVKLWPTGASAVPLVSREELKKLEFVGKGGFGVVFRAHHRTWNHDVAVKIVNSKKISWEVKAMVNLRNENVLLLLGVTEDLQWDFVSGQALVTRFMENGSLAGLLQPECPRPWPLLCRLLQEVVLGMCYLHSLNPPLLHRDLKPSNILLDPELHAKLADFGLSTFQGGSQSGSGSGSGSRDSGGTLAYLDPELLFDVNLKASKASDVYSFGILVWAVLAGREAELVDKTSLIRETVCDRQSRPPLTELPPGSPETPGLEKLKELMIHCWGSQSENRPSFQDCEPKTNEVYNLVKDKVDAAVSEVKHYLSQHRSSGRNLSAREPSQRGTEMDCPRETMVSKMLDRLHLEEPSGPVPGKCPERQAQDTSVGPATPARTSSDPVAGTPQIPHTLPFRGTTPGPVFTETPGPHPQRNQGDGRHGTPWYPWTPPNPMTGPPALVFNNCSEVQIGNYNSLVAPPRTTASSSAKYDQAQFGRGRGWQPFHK
UniProt O14744: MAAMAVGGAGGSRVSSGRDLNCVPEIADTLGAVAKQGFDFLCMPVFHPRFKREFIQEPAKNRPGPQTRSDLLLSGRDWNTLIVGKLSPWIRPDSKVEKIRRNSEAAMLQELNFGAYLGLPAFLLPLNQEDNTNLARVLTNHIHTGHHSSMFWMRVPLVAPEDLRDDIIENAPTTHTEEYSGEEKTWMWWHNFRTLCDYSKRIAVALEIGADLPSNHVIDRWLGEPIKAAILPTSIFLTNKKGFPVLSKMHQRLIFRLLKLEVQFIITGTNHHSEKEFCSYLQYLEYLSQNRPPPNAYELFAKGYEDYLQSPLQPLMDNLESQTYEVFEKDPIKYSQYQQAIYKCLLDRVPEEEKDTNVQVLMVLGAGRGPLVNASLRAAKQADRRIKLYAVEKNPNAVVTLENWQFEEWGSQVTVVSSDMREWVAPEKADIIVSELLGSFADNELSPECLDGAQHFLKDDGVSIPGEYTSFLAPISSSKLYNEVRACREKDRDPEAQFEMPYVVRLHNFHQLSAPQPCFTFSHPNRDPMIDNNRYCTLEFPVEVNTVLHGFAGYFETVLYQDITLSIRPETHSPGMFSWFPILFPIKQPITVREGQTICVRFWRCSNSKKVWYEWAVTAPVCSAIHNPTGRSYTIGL

[2] = target: GST-tagged mouse RIPK3 (mouse) (UniProt Q9QZL0)
[3] = target: T2, GST-tagged full-length mRIPK1 (1-656 aa) (mouse) (UniProt Q60855)
T2 sequence: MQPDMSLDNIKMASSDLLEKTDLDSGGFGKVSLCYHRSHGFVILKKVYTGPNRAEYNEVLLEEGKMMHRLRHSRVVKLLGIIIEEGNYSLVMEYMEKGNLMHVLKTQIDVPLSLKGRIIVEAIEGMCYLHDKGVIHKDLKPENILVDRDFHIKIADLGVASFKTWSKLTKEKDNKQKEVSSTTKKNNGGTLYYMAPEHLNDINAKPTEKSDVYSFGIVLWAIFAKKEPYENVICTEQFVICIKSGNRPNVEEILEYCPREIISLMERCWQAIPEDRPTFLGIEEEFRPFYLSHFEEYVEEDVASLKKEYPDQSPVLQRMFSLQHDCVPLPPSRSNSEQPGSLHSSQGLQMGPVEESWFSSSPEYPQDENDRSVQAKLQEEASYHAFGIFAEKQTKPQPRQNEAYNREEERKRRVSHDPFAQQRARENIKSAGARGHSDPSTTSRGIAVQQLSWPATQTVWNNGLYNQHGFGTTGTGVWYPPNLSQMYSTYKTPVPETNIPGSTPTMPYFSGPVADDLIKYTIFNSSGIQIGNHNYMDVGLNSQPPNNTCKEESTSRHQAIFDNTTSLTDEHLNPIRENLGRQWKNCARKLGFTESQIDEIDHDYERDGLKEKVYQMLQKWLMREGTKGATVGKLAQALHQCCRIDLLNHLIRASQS

[4] = target: T3, GST-tagged mRIPK1 lacking the death domain (∆DD, mRIPK1-1-588 aa) (mouse) (UniProt Q60855)
T3 sequence: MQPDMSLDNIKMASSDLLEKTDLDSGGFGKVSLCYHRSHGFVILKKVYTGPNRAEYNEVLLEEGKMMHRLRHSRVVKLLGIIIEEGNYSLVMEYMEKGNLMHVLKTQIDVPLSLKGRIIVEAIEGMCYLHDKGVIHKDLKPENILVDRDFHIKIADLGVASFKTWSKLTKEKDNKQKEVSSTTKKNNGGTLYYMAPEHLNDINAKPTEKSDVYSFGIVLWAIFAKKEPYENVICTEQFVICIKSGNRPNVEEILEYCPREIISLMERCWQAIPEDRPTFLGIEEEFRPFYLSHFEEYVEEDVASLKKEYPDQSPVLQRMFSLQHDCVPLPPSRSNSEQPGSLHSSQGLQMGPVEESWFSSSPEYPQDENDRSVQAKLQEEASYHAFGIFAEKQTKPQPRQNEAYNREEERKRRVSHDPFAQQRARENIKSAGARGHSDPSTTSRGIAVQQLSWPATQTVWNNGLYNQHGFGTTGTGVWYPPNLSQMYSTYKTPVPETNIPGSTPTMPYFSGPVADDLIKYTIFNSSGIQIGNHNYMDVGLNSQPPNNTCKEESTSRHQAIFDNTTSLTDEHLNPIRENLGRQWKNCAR

Measured: binding

3xFLAG-PRMT5 (from UniProt O14744 1-637)
binds: all assays above

— PMC9852244
